In this assay the target is T1, his-tagged full-length GREM1 (Homo sapiens (Human)) (UniProt O60565).
T1 sequence: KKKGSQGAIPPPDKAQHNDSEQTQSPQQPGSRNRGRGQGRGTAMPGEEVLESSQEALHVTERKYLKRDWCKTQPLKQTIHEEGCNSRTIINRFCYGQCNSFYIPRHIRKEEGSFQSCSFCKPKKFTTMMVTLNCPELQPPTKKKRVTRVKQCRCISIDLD
The experiment in a line: competition pull-down; the peptide competes with Fc-tagged ACVR1C-ECD for his-tagged GREM1 (FIG. 11b).

These are yes or no findings as the source states them, for the method shown. Binding seen in cells or lysates may run through a third protein. Some entries that bind do so weakly or less than the wild type. Where a sequence is shown, tags or fusion partners need not be part of it.

Regarding TECCFTDFCNNITLHLPTA [ACVR1C peptide], the binding result is “binds”.

(Values after US20250304621A1, “POLYPEPTIDE FOR SPECIFICALLY BLOCKING BINDING OF ACVR1C TO GREM1 AND USE THEREOF” (The Seventh Affiliated Hospital, Sun Yat-Sen University, priority 2024, published 2025).)
